The values that follow come from US4591551A, “Radioenzymatic method for assaying normetanephrine and octopamine” (University of Southern California, priority 1984, dated 1986).

A short description of this series: Radioenzymatic assay of plasma normetanephrine in supine normotensives and patients with pheochromocytoma. Conditions: pheochromocytoma vs normotensives. On the set-up: species or system human.

Bounds are passed on as bounds.

On to `COc1cc(C(O)CN)ccc1O` (stereo not shown) [Normetanephrine, normetanephrine], for which the “Plasma normetanephrine in pheochromocytoma patients relative to normotensives” value is at least 30 fold.
